Laboratory results as given in patent US20170233737.

Protein sequences, listed by entry. Tags and fused reporters are not part of them. Residues count along the entry.
UniProt P13500, 24-99: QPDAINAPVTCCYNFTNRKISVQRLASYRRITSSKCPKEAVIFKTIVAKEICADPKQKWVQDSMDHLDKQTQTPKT

Tests used:
[1] = target: human MCP-1 (CCL2, natural L-form) (Homo sapiens) (UniProt P13500); experiment: activity in cells; details: L-RNA, inhibition of THP-1 chemotaxis, mirror-image nucleic acid, variant of 180-D1-036 (L-RNA Spiegelmer)
[2] = target: human MCP-1 (CCL2, natural L-form) (Homo sapiens) (UniProt P13500); experiment: SPR; details: L-RNA; range stated for 181-A2 and its derivatives, 37 C; mirror-image nucleic acid; variant of 181-A2 (L-RNA Spiegelmer)

GCACGUCCCUCACCGGUGCAAGUGAAGCCGUGGCUCUGCG [180-D1-036-3'PEG]
IC50 ([1]; 3'-PEG 40 kDa): < 1 nM

GCACGUCCCUCACCGGUGCAAGUGAAGCCGUGGCUCUGCG [180-D1-036-5'PEG (NOX-E36 when specific linker)]
IC50 ([1]; 5'-PEG 40 kDa): < 1 nM

GGGCGUAGUGAGAAACUACCAACGACUGGCUAGAGCCGGCCC [181-A2-018 (L-RNA)]
binding result [2]: binds

The exact form of at least one protein or probe is not confirmed.
